PubChem BioAssay AID2685 (National Center for Advancing Translational Sciences (NCATS), 2010)
This is one part of the list. The main result of the screen is listed elsewhere. These columns were measured beside it and carry no call. Compounds called inactive in the main read-out are mostly missing here. Words in brackets tell the shape of the fitted curve; partial curves, single points and poor fits give uncertain potencies.

Test: qHTS Assay for Lipid Storage Modulators in Drosophila S3 Cells;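 on cell number change: cells counted by Cell Tracker Red CMTPX staining in the red channel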
Settings: BODIPY lipid droplet fluorescence, 18-24 h; for cell number change: measured here: cell count max response, cells fed with added oleic acid
Summary of the method: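 Laser-scanning cytometry quantifies lipid droplet accumulation (500–530 nm total intensity; droplet/cell object ratio) in oleic acid-fed (400 uM added) Drosophila S3 cells treated with a concentration series. 20 uM Triacsin C defined 100% inhibition.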

[1] = measured here: lipid fluorescence (Fed channel) AC50, cells fed with added oleic acid
[2] = measured here: cell number channel AC50, cells fed with added oleic acid

Row | SMILES | cell number change [%] | AC50 [1] | AC50 [2]
1 | COc1ccc(N2C(=O)CC(Sc3nccc(C)n3)C2=O)cc1 (centres undefined) | -1.53 |  | 
2 | COC(=O)c1ccc(NC(=O)CSc2nncn2-c2ccccn2)cc1 | -10.5 | 0.447 µM [rising, full curve, poor fit] | 
3 | CC(=O)N/C(=C\c1ccccc1)C(=O)OC(C)C(=O)NCc1ccccc1 (centres undefined) | 21 |  | 
4 | COC(=O)C1=C(C)OC(N)=C(C#N)C1c1ccccc1F (centres undefined) | -8.12 |  | 
5 | Cc1ccc(-c2csc(N=C(N)N)n2)c(C)c1 | -53.4 | 8.2 µM [falling, partial curve] | 25.9 µM [falling, partial curve, poor fit]
6 | CCOC(=O)c1ccc(NC(=O)C2CCC(CNc3c(N4CCOCC4)c(=O)c3=O)CC2)cc1 (centres undefined) | 13.9 | 3.26 µM [rising, single point] | 
7 | Cc1ccc2nc3c(cc2c1)c(C)nn3-c1ccccc1 | 81 | 29.1 µM [rising, partial curve] | 29.1 µM [rising, partial curve, poor fit]
8 | COc1ccc(CCNC(=O)COC(=O)c2cc(OC)c(OC)cc2OC)cc1OC | -1.49 |  | 0.651 µM [rising, full curve, poor fit]
9 | COc1cc(F)ccc1S(=O)(=O)N1CCN(C23CC4CC(CC(C4)C2)C3)CC1 |  | 1.46 µM [falling, full curve] | 
10 | C/C(=N\NC(=O)COc1ccc(C(C)(C)C)cc1)c1ccc(OC(F)F)cc1 | -55.6 | 16.4 µM [falling, partial curve] | 16.4 µM [falling, single point]
11 | CCOC(=O)c1sc(-c2cccc([N+](=O)[O-])c2)cc1N | 107 | 29.1 µM [rising, partial curve] | 29.1 µM [rising, partial curve, poor fit]
12 | Cc1ccc(OCCCC(=O)Nc2ccc(N3CCOCC3)cc2)cc1 | -15.7 | 0.00517 µM [rising, full curve, poor fit] | 
13 | Cc1ccc(S(=O)(=O)N2CCN(C(=O)CN3CCCCC3)C2C(C)C)cc1 (centres undefined) | -27.9 | 3.26 µM [falling, full curve] | 0.731 µM [falling, full curve]
14 | CC(=O)c1ccc(NC(=O)c2cccc(NC(=O)c3ccccc3)c2)cc1 | 20.2 | 29.1 µM [falling, single point] | 
15 | CC(=O)c1ccc(S(=O)(=O)N(C)CC(=O)N2CCCCCC2)cc1 | -8.51 |  | 3.66 µM [rising, single point]
16 | Cc1cnc(CN(C)Cc2c(C(=O)N3CCc4ccccc4C3)nc3ccc(Cl)cn23)[nH]1 | 17.4 |  | 
17 | Cc1cccc(C(=O)N[C@H](C(=O)OCC(=O)NC2CCS(=O)(=O)C2)C(C)C)c1 (some centres undefined) | -9.79 | 6.51 µM [falling, single point] | 
18 | Cc1ccc(S(=O)(=O)N2CCN(C(=O)COC(=O)CC(C)c3ccccc3)CC2)c(C)c1 (centres undefined) | 66.7 |  | 25.9 µM [rising, single point]

Excerpt, nos. 1–8
Row | SMILES | cell number change [%] | AC50 [1] | AC50 [2]
1 | COc1ccc(N2C(=O)CC(Sc3nccc(C)n3)C2=O)cc1 (centres undefined) | -1.53 |  | 
2 | COC(=O)c1ccc(NC(=O)CSc2nncn2-c2ccccn2)cc1 | -10.5 | 0.447 µM [rising, full curve, poor fit] | 
3 | CC(=O)N/C(=C\c1ccccc1)C(=O)OC(C)C(=O)NCc1ccccc1 (centres undefined) | 21 |  | 
4 | COC(=O)C1=C(C)OC(N)=C(C#N)C1c1ccccc1F (centres undefined) | -8.12 |  | 
5 | Cc1ccc(-c2csc(N=C(N)N)n2)c(C)c1 | -53.4 | 8.2 µM [falling, partial curve] | 25.9 µM [falling, partial curve, poor fit]
6 | CCOC(=O)c1ccc(NC(=O)C2CCC(CNc3c(N4CCOCC4)c(=O)c3=O)CC2)cc1 (centres undefined) | 13.9 | 3.26 µM [rising, single point] | 
7 | Cc1ccc2nc3c(cc2c1)c(C)nn3-c1ccccc1 | 81 | 29.1 µM [rising, partial curve] | 29.1 µM [rising, partial curve, poor fit]
8 | COc1ccc(CCNC(=O)COC(=O)c2cc(OC)c(OC)cc2OC)cc1OC | -1.49 |  | 0.651 µM [rising, full curve, poor fit]

Additional structures follow:

Row | SMILES | cell number change [%] | AC50 [1] | AC50 [2]
19 | C=CCNC(=O)C1CCCN(S(=O)(=O)c2ccc(-n3cnnn3)cc2)C1 (centres undefined) | -14.1 |  | 
20 | Cc1[nH]c2ccccc2c1C1(O)C(=O)N(Cc2ccc3c(c2)OCO3)c2ccccc21 (centres undefined) | -43.4 | 16.4 µM [falling, single point] | 29.1 µM [falling, single point]
21 | CCN(CC)S(=O)(=O)c1cccc(NC2=NCC(C)S2)c1 (centres undefined) | 21.5 | 29.1 µM [rising, single point] | 
22 | C/C(=N\NC(=O)c1ccc(NS(=O)(=O)c2cccs2)cc1)c1ccc(C(C)(C)C)cc1 | -18.9 | 13 µM [falling, single point] | 
23 | O=C(/C=C/Nc1cccc(C(F)(F)F)c1)C(F)(F)F | -15.5 | 6.51 µM [rising, partial curve, poor fit] | 
24 | COc1ccc(N2C(C(C)=O)=NN(c3ccccc3)C2c2cccs2)cc1 (centres undefined) | 34.5 | 1.46 µM [rising, full curve] | 7.31 µM [rising, full curve, poor fit]
25 | O=C(Nc1ccc(Cl)c([N+](=O)[O-])c1)C(NCCCO)c1ccccc1 (centres undefined) | 32.8 | 14.6 µM [rising, single point] | 18.4 µM [rising, single point]
26 | O=C(CCNC(=O)c1ccc([N+](=O)[O-])cc1)Nc1ccc(Cl)c(S(=O)(=O)N2CCOCC2)c1 | 5.39 | 0.517 µM [rising, full curve] | 
27 | Oc1cc2c(cc1CN1CCc3ccccc3C1)OCO2 | 20.2 | 18.4 µM [rising, single point] | 
28 | CSc1ccc(C(=O)N2CCC(CCC(=O)NC3CC3)CC2)cc1 | -4.01 |  | 
29 | Cc1ccc(NC(=O)c2ccco2)c(NC(=O)CN2C(=O)c3ccccc3C2=O)c1 |  |  | 6.51 µM [falling, single point]
30 | O=C(c1ccccc1)c1cc([N+](=O)[O-])ccc1N1CCCC1 | 87.3 | 16.4 µM [rising, single point] | 
31 | NC(=O)CSc1cn(Cc2cccc(F)c2)c2ccccc12 | 42.2 | 2.31 µM [rising, partial curve, poor fit] | 2.59 µM [rising, full curve]
32 | Cc1csc2nc(CNS(=O)(=O)c3ccc(-c4ccccc4)cc3)cn12 | -23.6 | 11.6 µM [falling, partial curve] | 
33 | N#Cc1ccc(C(=O)Nc2cc(S(=O)(=O)N3CCCC3)ccc2OCC(F)(F)F)cc1 | 2.54 | 1.84 µM [rising, partial curve, poor fit] | 
34 | O=C(OCc1nc2ccsc2c(=O)[nH]1)c1cc(Br)c(Br)s1 | -8.12 | 0.651 µM [falling, single point] | 
35 | O=C(NCCSc1ccccc1)c1ccc(Br)cc1 | 2.81 | 20.6 µM [rising, single point] | 
36 | CCn1cc([N+](=O)[O-])c(C(=O)N2N=C(c3ccc(Cl)c(Cl)c3)CC2c2ccccc2O)n1 (centres undefined) | -49.5 | 29.1 µM [falling, single point] | 29.1 µM [falling, single point]
